Data from publication PMC9086926 (RSC Advances, 2018).

Assays:
[1] = Absorptive permeability across 7 day fast model; settings: human, Caco-2
[2] = Absorptive permeability across traditional 21 day Caco-2 cell model; settings: human
[3] = cited from earlier work

Papp A→B at 25 μM [1] | Papp A→B at 25 μM [2] | Structure (SMILES) | FA (human absorption fraction) [3]
4.36 ± 0.68 ×10⁻⁶ cm/s | 3.41 ± 0.23 ×10⁻⁶ cm/s | CC(C)NCC(O)COc1ccc(CC(N)=O)cc1 (centres unmarked) [Atenolol] | –
14.7 ± 0.81 ×10⁻⁶ cm/s | 15 ± 2.37 ×10⁻⁶ cm/s | COc1ccc2cc([C@H](C)C(=O)O)ccc2c1 [Naproxen] | 99%
